Reference: publication PMC11192845
These are yes or no findings as the source states them, for the method shown. In cells and extracts the contact can be indirect. Some binding calls cover weakened binding; strength is not graded here. Tags and fused reporters may be left off the sequences shown.

T1: CTDNEP1-Myc-FLAG (human) (UniProt O95476)
T1 sequence: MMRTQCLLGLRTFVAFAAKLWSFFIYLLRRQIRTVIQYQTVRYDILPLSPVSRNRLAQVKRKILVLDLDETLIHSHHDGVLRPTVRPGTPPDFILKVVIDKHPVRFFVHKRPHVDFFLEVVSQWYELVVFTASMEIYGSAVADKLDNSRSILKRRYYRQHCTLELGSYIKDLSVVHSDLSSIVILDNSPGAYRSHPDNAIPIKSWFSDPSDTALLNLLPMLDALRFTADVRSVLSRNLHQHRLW

T2: HA-CTDNEP1 (human) (UniProt O95476)
T2 sequence: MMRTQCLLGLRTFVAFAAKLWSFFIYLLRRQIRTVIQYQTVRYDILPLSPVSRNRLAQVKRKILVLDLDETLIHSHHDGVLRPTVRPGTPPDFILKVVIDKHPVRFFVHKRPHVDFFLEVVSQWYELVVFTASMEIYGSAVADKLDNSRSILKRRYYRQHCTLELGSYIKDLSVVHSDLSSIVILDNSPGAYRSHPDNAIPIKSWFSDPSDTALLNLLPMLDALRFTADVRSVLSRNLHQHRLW


Legend:
CTDNEP1-Myc-FLAG (human) = molecular target: T1, CTDNEP1-Myc-FLAG (human); test: co-IP; epitope-tagged TMEM255A and epitope-tagged CTDNEP1 co-expressed from cDNAs (reconstitution experiments); immunoprecipitation and immunoblot; conditions not described
HA-CTDNEP1 (human) = molecular target: T2, HA-CTDNEP1 (human); test: as above

Row | Binder | binding (CTDNEP1-Myc-FLAG (human)) | binding (HA-CTDNEP1 (human))
1 | HA-TMEM255A (protein, UniProt Q5JRV8 1-349) MHQSLTQQRSSDMSLPDSMGAFNRRKRNSIYVTVTLLIVSVLILTVGLAATTRTQNVTVGGYYPGVILGFGSFLGIIGSNLIENKRQMLVASIVFISFGVIAAFCCAIVDGVFAARHIDLKPLYANRCHYVPKTSQKEAEEVISSSTKNSPSTRVMRNLTQAAREVNCPHLSREFCTPRIRGNTCFCCDLYNCGNRVEITGGYYEYIDVSSCQDIIHLYHLLWSATILNIVGLFLGIITAAVLGGFKDMNPTLPALNCSVENTHPTVSYYAHPQVASYNTYYHSPPHLPPYSAYDFQHSGVFPSSPPSGLSDEPQSASPSPSYMWSSSAPPRYSPPYYPPFEKPPPYSP | binds | 
2 | TMEM255A-Myc-FLAG (protein, UniProt Q5JRV8 1-349) MHQSLTQQRSSDMSLPDSMGAFNRRKRNSIYVTVTLLIVSVLILTVGLAATTRTQNVTVGGYYPGVILGFGSFLGIIGSNLIENKRQMLVASIVFISFGVIAAFCCAIVDGVFAARHIDLKPLYANRCHYVPKTSQKEAEEVISSSTKNSPSTRVMRNLTQAAREVNCPHLSREFCTPRIRGNTCFCCDLYNCGNRVEITGGYYEYIDVSSCQDIIHLYHLLWSATILNIVGLFLGIITAAVLGGFKDMNPTLPALNCSVENTHPTVSYYAHPQVASYNTYYHSPPHLPPYSAYDFQHSGVFPSSPPSGLSDEPQSASPSPSYMWSSSAPPRYSPPYYPPFEKPPPYSP |  | binds
